These are yes or no findings as the source states them, for the method shown. In cells and extracts the contact can be indirect. Some results given as binding are weak or reduced against the parent protein; the word gives no strength. Tags and fused reporters may be left off the sequences shown.

The chains behind the UniProt entries cited, without tags or fusion partners. Residues count along the entry.
UniProt O95831, residues 55-613: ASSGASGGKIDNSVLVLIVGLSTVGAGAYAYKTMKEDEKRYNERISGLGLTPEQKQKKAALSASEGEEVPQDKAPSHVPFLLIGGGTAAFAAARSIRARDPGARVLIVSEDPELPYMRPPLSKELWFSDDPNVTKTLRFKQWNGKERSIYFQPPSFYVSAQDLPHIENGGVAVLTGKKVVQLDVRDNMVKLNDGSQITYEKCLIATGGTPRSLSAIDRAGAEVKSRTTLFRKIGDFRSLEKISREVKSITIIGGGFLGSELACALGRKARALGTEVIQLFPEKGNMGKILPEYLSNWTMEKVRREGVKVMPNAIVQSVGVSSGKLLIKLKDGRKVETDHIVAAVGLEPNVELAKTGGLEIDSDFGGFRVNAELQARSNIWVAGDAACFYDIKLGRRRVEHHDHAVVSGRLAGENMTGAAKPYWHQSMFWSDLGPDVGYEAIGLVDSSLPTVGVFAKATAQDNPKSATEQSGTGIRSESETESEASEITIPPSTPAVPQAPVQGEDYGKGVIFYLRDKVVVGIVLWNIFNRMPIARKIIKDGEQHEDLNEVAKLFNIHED

Four molecules from patent US20220249597A1, “MIF INHIBITORS AND METHODS OF USE THEREOF” (The Johns Hopkins University, priority 2016, published 2022) can be followed below.

Test [1] deals with endogenous AIF (apoptosis-inducing factor) in HeLa cell lysates (human) (UniProt O95831). Kind of test: GST pull-down on glutathione beads.
Test [2] shares this target. Put plainly: GST pull-down from HeLa cell lysate, western blot.

B1: wild type GST-MIF (protein, human, UniProt P14174 1-115, looked up, not shown: a dimerising Fc or GST)
chain: MPMFIVNTNVPRASVPDGFLSELTQQLAQATGKPPQYIAVHVVPDQLMAFGGSSEPCALCSLHSIGKIGGAQNRSYSKLLCGLLAERLRISPDRVYINYYDMNAANVGWNNSTFA
For B1, the binding result in test [1] and in test [2] was “binds” in each case.

B2: GST-MIF E22D (protein, not shown: a dimerising Fc or GST; small tags and cut ends)
chain: PMFIVNTNVPRASVPDGFLSDLTQQLAQATGKPPQYIAVHVVPDQLMAFGGSSEPCALCSLHSIGKIGGAQNRSYSKLLCGLLAERLRISPDRVYINYYDMNAANVGWNNSTFA
With B2, the binding entry in test [2] is “binds”.

B3: GST-MIF E22Q (protein, not shown: a dimerising Fc or GST; small tags and cut ends)
chain: PMFIVNTNVPRASVPDGFLSQLTQQLAQATGKPPQYIAVHVVPDQLMAFGGSSEPCALCSLHSIGKIGGAQNRSYSKLLCGLLAERLRISPDRVYINYYDMNAANVGWNNSTFA
With B3, in test [2], the binding entry is on record as “binds”.

B4: GST-MIF C57A; C60A (protein, not shown: a dimerising Fc or GST; small tags and cut ends)
chain: PMFIVNTNVPRASVPDGFLSELTQQLAQATGKPPQYIAVHVVPDQLMAFGGSSEPAALASLHSIGKIGGAQNRSYSKLLCGLLAERLRISPDRVYINYYDMNAANVGWNNSTFA
As to B4, the binding entry in test [2] is “binds”.
